In the supplement of paper PMC10849652:
The list shows a part of the results.

By UniProt entry, the sequences of proteins in these tests, tags left out. Where a name states a change or a piece, a line headed by the entry shows the natural chain unless it says otherwise.
UniProt Q9Y4L1: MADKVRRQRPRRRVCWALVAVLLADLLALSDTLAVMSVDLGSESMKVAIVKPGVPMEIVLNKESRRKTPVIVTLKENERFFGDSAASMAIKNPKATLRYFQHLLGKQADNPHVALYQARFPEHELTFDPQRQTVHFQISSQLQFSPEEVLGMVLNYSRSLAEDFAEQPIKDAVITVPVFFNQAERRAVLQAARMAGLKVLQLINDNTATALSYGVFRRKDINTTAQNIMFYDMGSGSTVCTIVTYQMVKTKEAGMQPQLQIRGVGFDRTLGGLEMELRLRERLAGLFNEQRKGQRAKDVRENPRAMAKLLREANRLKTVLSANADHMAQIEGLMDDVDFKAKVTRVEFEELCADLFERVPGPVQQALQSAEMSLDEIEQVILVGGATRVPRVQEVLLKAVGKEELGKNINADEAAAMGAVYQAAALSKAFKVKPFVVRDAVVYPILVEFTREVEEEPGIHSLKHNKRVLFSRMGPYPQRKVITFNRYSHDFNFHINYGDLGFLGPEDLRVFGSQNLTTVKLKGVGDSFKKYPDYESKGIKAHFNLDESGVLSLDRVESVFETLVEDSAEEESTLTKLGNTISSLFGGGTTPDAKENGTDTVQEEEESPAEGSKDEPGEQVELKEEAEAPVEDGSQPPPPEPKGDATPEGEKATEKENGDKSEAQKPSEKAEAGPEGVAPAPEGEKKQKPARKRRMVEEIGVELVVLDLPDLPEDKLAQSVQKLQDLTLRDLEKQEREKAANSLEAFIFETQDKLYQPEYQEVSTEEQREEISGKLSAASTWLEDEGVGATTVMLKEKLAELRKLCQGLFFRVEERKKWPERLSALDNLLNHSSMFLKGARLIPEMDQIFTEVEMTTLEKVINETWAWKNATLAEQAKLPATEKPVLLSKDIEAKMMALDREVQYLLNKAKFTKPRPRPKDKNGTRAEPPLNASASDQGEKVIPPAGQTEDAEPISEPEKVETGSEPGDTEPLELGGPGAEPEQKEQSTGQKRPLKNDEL
UniProt Q9Y6K9, whole entry, looked up: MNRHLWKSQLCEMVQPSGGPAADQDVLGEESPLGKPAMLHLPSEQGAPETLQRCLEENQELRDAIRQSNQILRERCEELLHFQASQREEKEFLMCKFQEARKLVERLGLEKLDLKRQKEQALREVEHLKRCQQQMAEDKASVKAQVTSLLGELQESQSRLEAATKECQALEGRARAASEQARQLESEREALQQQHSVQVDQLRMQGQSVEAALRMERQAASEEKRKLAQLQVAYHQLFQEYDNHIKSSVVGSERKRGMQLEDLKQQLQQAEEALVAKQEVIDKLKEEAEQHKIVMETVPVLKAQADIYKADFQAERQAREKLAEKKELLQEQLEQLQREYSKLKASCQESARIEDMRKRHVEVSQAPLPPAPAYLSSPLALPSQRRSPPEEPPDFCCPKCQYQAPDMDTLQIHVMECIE
UniProt Q12905: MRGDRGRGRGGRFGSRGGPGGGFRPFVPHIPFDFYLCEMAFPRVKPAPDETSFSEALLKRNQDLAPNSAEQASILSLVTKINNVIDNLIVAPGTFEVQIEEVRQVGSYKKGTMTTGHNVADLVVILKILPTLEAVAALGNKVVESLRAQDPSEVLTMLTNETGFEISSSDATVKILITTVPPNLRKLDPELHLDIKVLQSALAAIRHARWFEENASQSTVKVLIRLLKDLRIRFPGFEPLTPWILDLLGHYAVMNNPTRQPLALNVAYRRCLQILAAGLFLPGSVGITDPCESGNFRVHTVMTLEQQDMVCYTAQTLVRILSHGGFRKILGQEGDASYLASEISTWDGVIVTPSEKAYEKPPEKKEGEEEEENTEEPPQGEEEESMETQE
UniProt P48735: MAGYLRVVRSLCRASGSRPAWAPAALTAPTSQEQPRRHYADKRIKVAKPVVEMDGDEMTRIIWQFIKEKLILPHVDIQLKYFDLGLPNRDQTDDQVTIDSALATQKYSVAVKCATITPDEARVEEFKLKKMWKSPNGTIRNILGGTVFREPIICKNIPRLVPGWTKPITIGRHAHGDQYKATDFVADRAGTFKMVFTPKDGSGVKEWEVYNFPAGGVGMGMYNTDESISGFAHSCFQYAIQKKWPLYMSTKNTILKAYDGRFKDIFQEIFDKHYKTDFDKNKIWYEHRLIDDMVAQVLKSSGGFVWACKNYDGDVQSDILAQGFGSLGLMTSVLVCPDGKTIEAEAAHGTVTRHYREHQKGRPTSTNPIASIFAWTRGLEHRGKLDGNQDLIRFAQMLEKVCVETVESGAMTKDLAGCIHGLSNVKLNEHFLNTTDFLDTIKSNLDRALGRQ
UniProt O00425, whole entry, looked up: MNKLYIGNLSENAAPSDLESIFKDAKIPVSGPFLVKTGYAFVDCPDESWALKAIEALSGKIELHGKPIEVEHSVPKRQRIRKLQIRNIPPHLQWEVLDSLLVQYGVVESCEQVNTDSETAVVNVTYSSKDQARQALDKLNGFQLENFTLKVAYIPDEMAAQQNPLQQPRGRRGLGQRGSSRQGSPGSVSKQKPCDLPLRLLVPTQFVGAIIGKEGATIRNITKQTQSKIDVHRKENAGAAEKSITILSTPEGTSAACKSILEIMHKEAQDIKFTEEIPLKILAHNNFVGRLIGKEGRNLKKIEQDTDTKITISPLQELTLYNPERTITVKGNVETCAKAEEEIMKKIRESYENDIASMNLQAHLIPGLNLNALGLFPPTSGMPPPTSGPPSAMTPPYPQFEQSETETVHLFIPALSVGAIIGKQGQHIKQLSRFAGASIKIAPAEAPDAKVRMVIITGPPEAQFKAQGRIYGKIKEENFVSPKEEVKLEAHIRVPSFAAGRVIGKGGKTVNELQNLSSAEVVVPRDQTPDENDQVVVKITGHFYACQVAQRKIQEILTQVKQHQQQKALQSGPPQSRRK
UniProt P15260: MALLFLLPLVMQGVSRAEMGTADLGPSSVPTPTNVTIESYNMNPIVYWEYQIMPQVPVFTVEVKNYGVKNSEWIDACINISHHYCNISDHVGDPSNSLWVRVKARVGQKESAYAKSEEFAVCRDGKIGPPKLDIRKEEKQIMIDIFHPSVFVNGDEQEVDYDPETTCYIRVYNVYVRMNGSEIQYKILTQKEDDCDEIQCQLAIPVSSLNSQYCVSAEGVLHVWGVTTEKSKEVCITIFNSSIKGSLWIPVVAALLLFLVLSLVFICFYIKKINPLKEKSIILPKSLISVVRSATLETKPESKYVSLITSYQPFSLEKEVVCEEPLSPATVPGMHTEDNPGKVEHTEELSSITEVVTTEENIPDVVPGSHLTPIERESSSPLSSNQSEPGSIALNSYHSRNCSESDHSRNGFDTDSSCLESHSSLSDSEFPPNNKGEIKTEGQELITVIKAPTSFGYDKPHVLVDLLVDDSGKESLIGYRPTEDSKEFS
UniProt Q9NSE4: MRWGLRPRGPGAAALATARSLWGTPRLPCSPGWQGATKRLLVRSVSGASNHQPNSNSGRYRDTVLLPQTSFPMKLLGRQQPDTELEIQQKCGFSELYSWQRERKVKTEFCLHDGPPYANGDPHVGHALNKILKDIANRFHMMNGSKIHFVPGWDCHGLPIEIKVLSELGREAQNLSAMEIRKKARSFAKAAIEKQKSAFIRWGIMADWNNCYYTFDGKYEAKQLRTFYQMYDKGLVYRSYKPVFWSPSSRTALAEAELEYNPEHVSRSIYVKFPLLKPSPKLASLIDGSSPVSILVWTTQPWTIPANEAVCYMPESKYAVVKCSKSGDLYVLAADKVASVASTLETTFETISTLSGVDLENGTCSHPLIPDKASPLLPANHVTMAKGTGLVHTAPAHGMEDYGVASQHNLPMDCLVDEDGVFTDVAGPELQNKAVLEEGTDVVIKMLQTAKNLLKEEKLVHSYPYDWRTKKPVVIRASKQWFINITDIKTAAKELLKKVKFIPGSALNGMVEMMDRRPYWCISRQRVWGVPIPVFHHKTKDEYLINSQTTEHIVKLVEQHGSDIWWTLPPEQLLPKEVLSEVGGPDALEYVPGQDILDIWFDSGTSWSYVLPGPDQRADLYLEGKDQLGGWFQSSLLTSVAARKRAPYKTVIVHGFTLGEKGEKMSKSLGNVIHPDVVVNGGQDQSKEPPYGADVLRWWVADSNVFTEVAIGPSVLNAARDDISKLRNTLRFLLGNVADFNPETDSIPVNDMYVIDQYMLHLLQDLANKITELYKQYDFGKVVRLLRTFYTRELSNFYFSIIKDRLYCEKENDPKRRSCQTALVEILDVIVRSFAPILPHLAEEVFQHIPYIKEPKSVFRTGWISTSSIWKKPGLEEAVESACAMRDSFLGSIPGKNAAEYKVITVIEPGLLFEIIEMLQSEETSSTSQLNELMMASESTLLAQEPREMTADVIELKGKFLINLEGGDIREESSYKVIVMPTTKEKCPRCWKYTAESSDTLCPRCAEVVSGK

Key:
Test in all cases: log2 fold change, soluble protein after heating vs DMSO (PISA); higher = thermal stabilisation; K562 lysate, 10 uM; active = over 0.2 and 3.5 SD of the protein, either way, in both replicates (recomputed)
alvocidib = compound: CN1CC[C@H](c2c(O)cc(O)c3c(=O)cc(-c4ccccc4Cl)oc23)[C@H](O)C1 [alvocidib]
Procedure, shortened: (§1)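 Soluble protein was defined as the supernatant remaining after 21,000xg for 90 min, following pooling of heated aliquots and adjustment to 0.5% NP-40 at 4°C. Before that, crude K562 extract at 1 mg/mL protein in PBS pH 7.4 with 1 mM MgCl2 was treated with 10 μM compound for 30 min and heated for 3 min across 48°C-58°C. Quantification used TMTpro 16plex LC-MS/MS with channel sums equalised, and values are log-two fold changes in thermal stability relative to solvent controls from duplicates.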

Tubastatin A = compound: CN1CCc2c(c3ccccc3n2Cc2ccc(C(=O)NO)cc2)C1 [Tubastatin A]
Procedure, shortened: as §1

[1] = compound: CNC(=O)C1=CC=CC=C1NC2=NC(=NC=C2Cl)NC3=C(C=C(C=C3)N4CCOCC4)OC
Procedure, shortened: as §1

defactinib = compound: CNC(=O)c1ccc(Nc2ncc(C(F)(F)F)c(NCc3nccnc3N(C)S(C)(=O)=O)n2)cc1 [defactinib]
Procedure, shortened: as §1

[2] = compound: CNc1nc(-c2ccc3c(N)n[nH]c3c2)cc(N2C[C@@H](C(=O)NC3CCCCC3)CC[C@H]2C)n1
Procedure, shortened: as §1

encorafenib = compound: COC(=O)N[C@@H](C)CNc1nccc(-c2cn(C(C)C)nc2-c2cc(Cl)cc(NS(C)(=O)=O)c2F)n1 [encorafenib]
Procedure, shortened: as §1

[3] = compound: COC(=O)[C@H](CCSC)NC(=O)C1=C(C=C(C=C1)NC[C@H](CS)N)C2=CC=CC=C2
Procedure, shortened: as §1

alisertib = compound: COc1cc(Nc2ncc3c(n2)-c2ccc(Cl)cc2C(c2c(F)cccc2OC)=NC3)ccc1C(=O)O [alisertib]
Procedure, shortened: as §1

[4] = compound: COc1cc2nc(-c3cc(F)ccc3O)nc(N[C@@H]3CNC[C@H]3C(C)(C)O)c2cc1OC
Procedure, shortened: as §1

gefitinib = compound: COc1cc2ncnc(Nc3ccc(F)c(Cl)c3)c2cc1OCCCN1CCOCC1 [gefitinib]
Procedure, shortened: as §1

lapatinib = compound: CS(=O)(=O)CCNCc1ccc(-c2ccc3ncnc(Nc4ccc(OCc5cccc(F)c5)c(Cl)c4)c3c2)o1 [lapatinib]
Procedure, shortened: as §1

pictilisib = compound: CS(=O)(=O)N1CCN(Cc2cc3nc(-c4cccc5[nH]ncc45)nc(N4CCOCC4)c3s2)CC1 [pictilisib]
Procedure, shortened: as §1

crizotinib = compound: C[C@@H](Oc1cc(-c2cnn(C3CCNCC3)c2)cnc1N)c1c(Cl)ccc(F)c1Cl [crizotinib]
Procedure, shortened: as §1

[5] = compound: C[C@H](C1=CC=C(C=C1)C(=O)NC2=C3C=CNC3=NC=C2)N
Procedure, shortened: as §1

duvelisib = compound: C[C@H](Nc1ncnc2nc[nH]c12)c1cc2cccc(Cl)c2c(=O)n1-c1ccccc1 [duvelisib]
Procedure, shortened: as §1

gandotinib = compound: Cc1cc(Nc2cc(CN3CCOCC3)c3nc(C)c(Cc4ccc(Cl)cc4F)n3n2)n[nH]1 [gandotinib]
Procedure, shortened: as §1

tozasertib = compound: Cc1cc(Nc2cc(N3CCN(C)CC3)nc(Sc3ccc(NC(=O)C4CC4)cc3)n2)n[nH]1 [tozasertib]
Procedure, shortened: as §1

doramapimod = compound: Cc1ccc(-n2nc(C(C)(C)C)cc2NC(=O)Nc2ccc(OCCN3CCOCC3)c3ccccc23)cc1 [doramapimod]
Procedure, shortened: as §1

bafetinib = compound: Cc1ccc(NC(=O)c2ccc(CN3CC[C@H](N(C)C)C3)c(C(F)(F)F)c2)cc1Nc1nccc(-c2cncnc2)n1 [bafetinib]
Procedure, shortened: as §1

[6] = compound: Cc1cccc(CC(=O)N2CCc3c2ccc(-c2cn(C)c4ncnc(N)c24)c3F)n1
Procedure, shortened: as §1

Measured: log2 fold change

HYOU1 (UniProt Q9Y4L1)
inactive: alvocidib 0.008 | Tubastatin A 0.008 | [1] -0.01 | defactinib -0.032 | [2] 0.009 | encorafenib 0 | [3] 0.02 | alisertib 0.02 | [4] 0.025 | gefitinib 0 | lapatinib -0.003 | pictilisib 0.017 | crizotinib 0.004 | [5] 0.041 | duvelisib 0.009 | gandotinib -0.024 | tozasertib -0.01 | doramapimod -0.007 | bafetinib 0.022 | [6] -0.018

IKBKG isoform 2 (UniProt Q9Y6K9)
inactive: alvocidib -0.049 | Tubastatin A 0.02 | [1] 0.026 | defactinib 0.015 | [2] 0.05 | encorafenib 0.016 | [3] -0.09 | alisertib 0.008 | [4] 0.053 | gefitinib -0.006 | lapatinib -0.026 | pictilisib 0.01 | crizotinib -0.005 | [5] -0.054 | duvelisib 0.025 | gandotinib 0.048 | tozasertib -0.016 | doramapimod 0 | bafetinib 0 | [6] 0.01

IMPDH2 (UniProt P12268)
active: Tubastatin A -0.226 | [3] -0.501
inactive: alvocidib 0.026 | [1] 0.013 | defactinib 0.03 | [2] 0.017 | encorafenib 0.021 | alisertib 0.029 | [4] -0.015 | gefitinib -0.023 | lapatinib 0.027 | pictilisib 0.043 | crizotinib -0.007 | [5] -0.011 | duvelisib -0.012 | gandotinib -0.04 | tozasertib -0.017 | doramapimod 0.029 | bafetinib 0.041 | [6] 0.012

ILF2 (UniProt Q12905)
inactive: alvocidib 0.026 | Tubastatin A -0.001 | [1] -0.004 | defactinib -0.013 | [2] 0.044 | encorafenib 0.017 | [3] -0.028 | alisertib 0.015 | [4] 0.014 | gefitinib -0.007 | lapatinib -0.02 | pictilisib -0.008 | crizotinib 0.001 | [5] 0.041 | duvelisib 0.013 | gandotinib -0.014 | tozasertib -0.008 | doramapimod -0.021 | bafetinib -0.008 | [6] -0.028

IDH2 (UniProt P48735)
inactive: alvocidib 0.007 | Tubastatin A -0.047 | [1] -0.003 | defactinib 0.035 | [2] 0.02 | encorafenib -0.01 | [3] 0.162 | alisertib 0.018 | [4] 0.012 | gefitinib -0.013 | lapatinib -0.016 | pictilisib 0.006 | crizotinib -0.077 | [5] 0.117 | duvelisib 0.064 | gandotinib -0.122 | tozasertib 0.032 | doramapimod 0.06 | bafetinib -0.034 | [6] -0.072

IGF2BP3 (UniProt O00425)
inactive: alvocidib 0.012 | Tubastatin A -0.147 | [1] -0.022 | defactinib -0.028 | [2] -0.016 | encorafenib -0.022 | [3] 0.218 | alisertib 0.006 | [4] -0.003 | gefitinib -0.017 | lapatinib 0.013 | pictilisib -0.038 | crizotinib -0.031 | [5] -0.032 | duvelisib 0.017 | gandotinib -0.04 | tozasertib 0.001 | doramapimod -0.006 | bafetinib -0.045 | [6] 0.053

IFNGR1 (UniProt P15260)
inactive: alvocidib -0.348 | Tubastatin A 0.157 | [1] -0.022 | defactinib -0.164 | [2] 0.272 | encorafenib -0.018 | [3] -0.002 | alisertib 0.138 | [4] 0.106 | gefitinib -0.036 | lapatinib -0.076 | pictilisib 0.153 | crizotinib -0.008 | [5] -0.497 | duvelisib 0.196 | gandotinib 0.263 | tozasertib -0.001 | doramapimod -0.034 | bafetinib -0.144 | [6] 0.378

IARS2 (UniProt Q9NSE4)
inactive: alvocidib 0.072 | Tubastatin A 0.021 | [1] -0.026 | defactinib 0.004 | [2] -0.003 | encorafenib -0.006 | [3] 0.014 | alisertib -0.013 | [4] -0.011 | gefitinib 0.004 | lapatinib -0.023 | pictilisib -0.013 | crizotinib -0.01 | [5] 0.19 | duvelisib -0.007 | gandotinib -0.057 | tozasertib 0.02 | doramapimod 0.011 | bafetinib -0.002 | [6] -0.049

Copied from the results shown (two entries):
IFNGR1 (UniProt P15260)
inactive: alvocidib -0.348 | Tubastatin A 0.157 | [1] -0.022 | defactinib -0.164 | [2] 0.272 | encorafenib -0.018 | [3] -0.002 | alisertib 0.138 | [4] 0.106 | gefitinib -0.036 | lapatinib -0.076 | pictilisib 0.153 | crizotinib -0.008 | [5] -0.497 | duvelisib 0.196 | gandotinib 0.263 | tozasertib -0.001 | doramapimod -0.034 | bafetinib -0.144 | [6] 0.378

IARS2 (UniProt Q9NSE4)
inactive: alvocidib 0.072 | Tubastatin A 0.021 | [1] -0.026 | defactinib 0.004 | [2] -0.003 | encorafenib -0.006 | [3] 0.014 | alisertib -0.013 | [4] -0.011 | gefitinib 0.004 | lapatinib -0.023 | pictilisib -0.013 | crizotinib -0.01 | [5] 0.19 | duvelisib -0.007 | gandotinib -0.057 | tozasertib 0.02 | doramapimod 0.011 | bafetinib -0.002 | [6] -0.049
